Patent US12714107B2, “Dioxazolines and their use as herbicides” (BASF SE, priority 2020, dated 2026)
Some results were stated once for a whole list of compounds, not compound by compound. At least one structure is not confirmed: it was looked up by name or label, or the drawing left a doubt. Some compounds share one range, which may span the group rather than tell each member.

Assays:
[1] = test system: APESV; test: greenhouse herbicidal activity, pre-emergence method; type: in vivo, Apera spica-venti; settings: scale 0 to 100
From the text: (§1) The culture containers used were plastic flowerpots containing loamy sand with approximately 3.0% of humus as the substrate. The seeds of the test plants were sown separately for each species.
(§2) For the pre-emergence treatment, the active ingredients, which had been suspended or emulsified in water, were applied directly after sowing by means of finely distributing nozzles. The containers were irrigated gently to promote germination and growth and subsequently covered with transparent plastic hoods until the test plants had rooted. This cover caused uniform germination of the test plants, unless this had been impaired by the active ingredients. For the post-emergence treatment, the test plants were first grown to a height of 3 to 15 cm, depending on the plant habit, and only then treated with the active ingredients which had been suspended or emulsified in water. For this purpose, the test plants were either sown directly and grown in the same containers, or they were first grown separately as seedlings and transplanted into the test containers a few days prior to treatment.
(§3) Depending on the species, the test plants were kept at 10-25° C. or 20-35° C., respectively. The test period extended over 2 to 4 weeks. During this time, the test plants were tended, and their response to the individual treatments was evaluated.
(§4) Evaluation was carried out using a scale from 0 to 100. 100 means no emergence of the test plants, or complete destruction of at least the aerial moieties, and 0 means no damage, or normal course of growth. A good herbicidal activity is given at values of 80 to 90 and a very good herbicidal activity is given at values of 90 to 100.
(§5) The test plants used in the greenhouse experiments were of the following species: […]

[2] = test system: SETVI; test: greenhouse herbicidal activity, post-emergence method; type: in vivo, Setaria viridis; settings: scale 0 to 100
From the text: as §1, §2, §3, §4, §5

[3] = test system: AVEFA; test: as above; type: in vivo, Avena fatua; settings: application rate 0,500 kg/ha, scale 0 to 100
From the text: as §1, §2, §3
(§6) Evaluation was carried out using a scale from 0 to 100. […]

[4] = test system: ECHCG; test: greenhouse herbicidal activity, pre-emergence method; type: in vivo, Echinocloa crus-galli; settings: scale 0 to 100
From the text: as §1, §2, §3, §4, §5

[5] = test system: ALOMY; test: greenhouse herbicidal activity, post-emergence method; type: in vivo, Alopercurus myosuroides; settings: application rate 0,500 kg/ha, scale 0 to 100
From the text: as §1, §2, §3, §4, §5

[6] = test system: ECHCG; test: as above; type: in vivo, Echinocloa crus-galli; settings: application rate 1,000 kg/ha, scale 0 to 100
From the text: as §1, §2, §3, §6

[7] = test system: AMARE; test: as above; type: in vivo, Amaranthus retroflexus; settings: application rate 1,000 kg/ha, scale 0 to 100
From the text: as §1, §2, §3, §6

SMILES | herbicidal activity against APESV ([1]; application rate 0,500 kg/ha) | herbicidal activity against SETVI ([2]; application rate 0,500 kg/ha) | herbicidal activity against AVEFA [3] | herbicidal activity against ECHCG ([4]; application rate 0,500 kg/ha) | herbicidal activity against ALOMY [5] | herbicidal activity against APESV ([1]; application rate 1,000 kg/ha) | herbicidal activity against ECHCG ([4]; application rate 1,000 kg/ha) | herbicidal activity against ECHCG [6] | herbicidal activity against SETVI ([2]; application rate 1,000 kg/ha) | herbicidal activity against AMARE [7]
COC(=O)C[C@H](C)NC(=O)C1(C(F)(F)F)ON=C(c2cc(Cl)cc(Cl)c2)O1 (stereo partly drawn) [compound 13, methyl (3S)-3-[[3-(3,5-dichlorophenyl)-5-(trifluoromethyl)-1,4,2-dioxazole-5-carbonyl]amino]butanoate] | very good (a very good herbicidal activity is given at values of 90 to 100) | good (A good herbicidal activity is given at values of 80 to 90) | very good (a very good herbicidal activity is given at values of 90 to 100) |  |  |  |  |  |  | 
COC(=O)CC(C)NC(=O)C1(C)ON=C(c2cc(F)cc(F)c2)O1 (stereo not shown) [compound 14] | very good (a very good herbicidal activity is given at values of 90 to 100) | good (A good herbicidal activity is given at values of 80 to 90) | very good (a very good herbicidal activity is given at values of 90 to 100) | very good (a very good herbicidal activity is given at values of 90 to 100) | very good (a very good herbicidal activity is given at values of 90 to 100) |  |  |  |  | 
COC(=O)CC(C)NC(=O)C1(C)ON=C(c2cc(Cl)cc(Cl)c2)O1 (stereo not shown) [compound 11] | very good (a very good herbicidal activity is given at values of 90 to 100) | good (A good herbicidal activity is given at values of 80 to 90) |  | very good (a very good herbicidal activity is given at values of 90 to 100) | very good (a very good herbicidal activity is given at values of 90 to 100) |  |  |  |  | 
C=CC1(C(=O)NC(C)CC(=O)OC)ON=C(c2cc(Cl)cc(Cl)c2)O1 (stereo not shown) [compound 110] |  |  |  |  |  | very good (a very good herbicidal activity is given at values of 90 to 100) | very good (a very good herbicidal activity is given at values of 90 to 100) | very good (a very good herbicidal activity is given at values of 90 to 100) | very good (a very good herbicidal activity is given at values of 90 to 100) | 
CC(CC(=O)O)NC(=O)C1(C)ON=C(c2cc(Cl)cc(Cl)c2)O1 (stereo not shown) [compound 17] |  |  |  |  |  | very good (a very good herbicidal activity is given at values of 90 to 100) |  | very good (a very good herbicidal activity is given at values of 90 to 100) | very good (a very good herbicidal activity is given at values of 90 to 100) | very good (a very good herbicidal activity is given at values of 90 to 100)
COC(=O)CCCNC(=O)C1(C)ON=C(c2cc(Cl)cc(Cl)c2)O1 (stereo not shown) [compound 12] |  | good (A good herbicidal activity is given at values of 80 to 90) |  |  | very good (a very good herbicidal activity is given at values of 90 to 100) |  |  |  |  | 
